In patent publication US20080050378A1:
Results are given in words; binding and its absence hold for the method and conditions named. Some entries that bind do so weakly or less than the wild type.

The chains behind the UniProt entries cited, without tags or fusion partners. Where a name states a change or a piece, a line headed by the entry shows the natural chain unless it says otherwise.
UniProt Q92847: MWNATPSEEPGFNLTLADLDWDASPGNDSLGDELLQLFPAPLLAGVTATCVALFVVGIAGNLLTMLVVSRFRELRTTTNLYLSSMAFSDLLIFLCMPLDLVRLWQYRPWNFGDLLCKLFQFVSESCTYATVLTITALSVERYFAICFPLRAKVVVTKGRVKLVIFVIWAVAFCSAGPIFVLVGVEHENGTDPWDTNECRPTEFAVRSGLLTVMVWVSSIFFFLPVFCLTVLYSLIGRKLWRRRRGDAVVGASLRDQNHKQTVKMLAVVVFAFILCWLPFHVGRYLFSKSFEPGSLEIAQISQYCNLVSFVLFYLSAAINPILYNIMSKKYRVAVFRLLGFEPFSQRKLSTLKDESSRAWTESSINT

Tests used:
[1] = target: FLAG-tagged GHSR1b (growth hormone secretagogue receptor 1b) on COS-7 cells (human) (UniProt Q92847); test: flow cytometry on transfected COS-7 cells (FIG. 13d)
[2] = target: FLAG-tagged NTSR1 (neurotensin receptor 1) on COS-7 cells (human) (UniProt P30989); test: as above
[3] = target: FLAG-tagged GHSR1b (growth hormone secretagogue receptor 1b) on COS-7 cells (human) (UniProt Q92847); test: confocal co-localisation on the cell membrane and flow cytometry, transfected COS-7 cells, 0.5 µM labeled peptide
[4] = target: FLAG-tagged NTSR1 (neurotensin receptor 1) on COS-7 cells (human) (UniProt P30989); test: as above
[5] = target: endogenous GHSR1b on NSCLC cells (LC319, PC-14) (human) (UniProt Q92847); test: receptor-ligand binding assay on LC319 and PC-14 cells, 8200 Cellular Detection System
[6] = target: endogenous NTSR1 on NSCLC cells (LC319, PC-14) (human) (UniProt P30989); test: as above

Measured: binding

B1: rhodamine-labeled NMU-25 peptide (NMU-25-rhodamine) (peptide, UniProt P48645 142-166, looked up)
peptide: FRVDEEFQSPFASQSRGYFLFRPRN
modifications: rhodamine label (position not given)
binds: [1] | [2] | [3] | [4]

B2: Cy5-labeled NMU-25 (Cy5-NMU-25) (peptide, UniProt P48645 142-166, looked up)
peptide: FRVDEEFQSPFASQSRGYFLFRPRN
modifications: Cy5 label (position not given)
binds: [5] | [6]
